Assay results as given in patent publication US20180282401A1.
These are yes or no findings as the source states them, for the method shown. Some binding calls cover weakened binding; strength is not graded here.

Amino acid sequences for entries named in this document (tags omitted). A change or cut given only in a name is not applied to a line headed by its entry. Chains listed by the source or under a name are the forms on record and can include a tag or linker.
rat endogenous tau (P19332, form named): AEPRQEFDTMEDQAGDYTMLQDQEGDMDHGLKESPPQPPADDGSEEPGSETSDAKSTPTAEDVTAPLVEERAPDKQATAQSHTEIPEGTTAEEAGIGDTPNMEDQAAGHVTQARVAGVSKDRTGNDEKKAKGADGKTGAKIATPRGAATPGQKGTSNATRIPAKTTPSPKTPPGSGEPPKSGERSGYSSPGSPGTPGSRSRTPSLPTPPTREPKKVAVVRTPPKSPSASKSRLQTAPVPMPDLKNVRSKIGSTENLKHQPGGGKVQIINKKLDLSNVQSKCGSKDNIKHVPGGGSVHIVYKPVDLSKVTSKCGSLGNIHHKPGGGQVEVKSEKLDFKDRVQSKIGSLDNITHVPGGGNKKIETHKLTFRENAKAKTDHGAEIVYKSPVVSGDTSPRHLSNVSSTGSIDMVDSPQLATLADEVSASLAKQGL

Columns and labels:
rat endogenous tau (rat) [1] = molecular target: rat endogenous tau (rat) (UniProt P19332); assay: immunoblot of brain fractions
rat endogenous tau (rat) [2] = molecular target: rat endogenous tau (rat) (UniProt P19332); assay: immunoblot of soluble and sarkosyl-insoluble brain fractions
352-380/R4 = assay: ELISA, synthetic peptide coated (5 µg/ml), DC8E8 hybridoma culture supernate, anti-mouse Ig-HRP, absorbance 492 nm
rat endogenous tau (rat) [3] = molecular target: rat endogenous tau (rat) (UniProt P19332); assay: immunoblot of brain extracts (soluble and sarkosyl-insoluble fractions) with DC8E8 hybridoma culture supernate, anti-mouse Ig-HRP

- binding (rat endogenous tau (rat) [1]): binds
- binding (rat endogenous tau (rat) [2]): binds
- binding (352-380/R4): binds
- binding (rat endogenous tau (rat) [3]): binds
B1: monoclonal antibody DC8E8 (antibody, V domains shown)
VH: QVQLQQSGPELVKPGTSVKMPCKASGYIFTDYVISWVKQRTGQGLEWIGEIFPRSGSTYYNEKFKGKATLTADKSSNTAYMQLSSVTSEDSAVYFCARDYYGTSFAMDYWGQGTSVTVSS
VL: DIVMSQSPSSLAVSAGEKVTMSCKSSQSLLNSRTRKNYLAWYQQKPGQSPKLLIYWASTRESGVPDRFTGSGSGTDFTLTISSVQAEDLAVYYCKQSFYLRTFGGGTKLDIK
